# Laboratory results from PMC12145441.
# By UniProt entry, the sequences of proteins in these tests, tags left out.
# UniProt O43791: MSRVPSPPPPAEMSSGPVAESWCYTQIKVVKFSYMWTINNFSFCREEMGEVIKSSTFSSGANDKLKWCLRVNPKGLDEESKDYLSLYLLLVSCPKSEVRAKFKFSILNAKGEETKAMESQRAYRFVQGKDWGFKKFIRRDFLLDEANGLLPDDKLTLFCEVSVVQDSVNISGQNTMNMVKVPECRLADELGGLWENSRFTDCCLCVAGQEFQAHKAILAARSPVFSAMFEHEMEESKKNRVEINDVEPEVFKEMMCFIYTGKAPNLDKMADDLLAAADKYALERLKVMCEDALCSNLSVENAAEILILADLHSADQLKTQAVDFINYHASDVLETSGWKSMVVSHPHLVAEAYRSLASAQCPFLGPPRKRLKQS
# Results are given in words; binding and its absence hold for the method and conditions named. For part of these data: Binding seen in cells or lysates may run through a third protein. Some results given as binding are weak or reduced against the parent protein; the word gives no strength. For part of these data: Sequences can lack the tags named with a protein.
# Tests used:
# [1] = molecular target: T1, LMNB2 (Lamin B2), endogenous (UniProt Q03252); test: co-IP; endogenous proteins; protein G Sepharose beads coupled with antibody at 4 °C overnight; washed with BC100 buffer with 0.2% Triton X-100; western blot; cell line not stated
# T1 sequence: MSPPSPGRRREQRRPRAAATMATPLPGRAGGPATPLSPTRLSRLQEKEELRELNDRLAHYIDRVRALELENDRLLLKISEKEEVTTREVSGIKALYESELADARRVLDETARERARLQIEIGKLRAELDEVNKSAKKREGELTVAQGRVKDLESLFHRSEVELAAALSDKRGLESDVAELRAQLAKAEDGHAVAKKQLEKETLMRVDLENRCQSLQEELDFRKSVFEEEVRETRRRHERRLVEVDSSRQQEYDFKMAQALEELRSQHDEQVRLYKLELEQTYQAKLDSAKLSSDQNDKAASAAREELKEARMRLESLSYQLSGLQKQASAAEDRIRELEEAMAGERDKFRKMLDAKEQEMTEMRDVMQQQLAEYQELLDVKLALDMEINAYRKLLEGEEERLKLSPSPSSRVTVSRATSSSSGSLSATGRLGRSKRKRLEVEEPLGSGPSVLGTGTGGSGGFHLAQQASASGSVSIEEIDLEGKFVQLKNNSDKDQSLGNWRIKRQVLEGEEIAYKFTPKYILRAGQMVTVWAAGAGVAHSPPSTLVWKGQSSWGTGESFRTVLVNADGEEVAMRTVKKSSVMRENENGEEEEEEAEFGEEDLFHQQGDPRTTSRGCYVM
# [2] = molecular target: T2, LMNB2-ΔSBC, recombinant protein of the GST pull-down (UniProt Q03252); test: pull-down; GST fusion protein immobilised on glutathione-Sepharose beads, incubated with recombinant protein for two hours in pull-down buffer (20 mM Tris-HCl pH 7.5, 150 mM NaCl, 0.1% NP-40, 1 mM DTT, 10% glycerol, 1 mM EDTA, 2.5 mM MgCl2); western blot; both purified
# T2 sequence: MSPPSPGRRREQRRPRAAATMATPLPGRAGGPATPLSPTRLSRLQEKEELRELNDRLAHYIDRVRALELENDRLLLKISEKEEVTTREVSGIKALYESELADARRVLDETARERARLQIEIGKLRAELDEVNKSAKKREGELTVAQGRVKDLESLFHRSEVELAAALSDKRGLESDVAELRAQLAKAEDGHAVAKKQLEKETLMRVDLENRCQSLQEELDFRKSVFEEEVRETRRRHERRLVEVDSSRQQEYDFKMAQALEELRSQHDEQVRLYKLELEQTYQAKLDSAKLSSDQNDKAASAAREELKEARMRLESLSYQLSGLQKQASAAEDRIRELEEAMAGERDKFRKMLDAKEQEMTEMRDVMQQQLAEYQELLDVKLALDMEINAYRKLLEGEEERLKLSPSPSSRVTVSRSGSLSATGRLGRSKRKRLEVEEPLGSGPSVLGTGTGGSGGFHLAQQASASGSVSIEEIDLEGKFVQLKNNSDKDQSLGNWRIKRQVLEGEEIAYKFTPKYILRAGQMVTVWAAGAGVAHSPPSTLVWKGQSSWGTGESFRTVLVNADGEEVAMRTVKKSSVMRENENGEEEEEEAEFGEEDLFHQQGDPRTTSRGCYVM
# [3] = molecular target: T3, LMNB2, recombinant protein of the GST pull-down (UniProt Q03252); test: as above
# T3 sequence: T1 sequence
binding [1],binding [2],binding [3],Substance
binds,,,"SPOP (speckle-type POZ protein), endogenous (from UniProt O43791 1-374)"
,no binding,binds,"SPOP, recombinant protein of the GST pull-down (from UniProt O43791 1-374)"
